At least one structure is not confirmed: it was looked up by name or label, or the drawing left a doubt.
Assay: Site-300 beryllium oxide debris particle chelation (ICP-MS of filtrates)
Format: physicochemical
Settings: pH 7, 3 days, about 500 mg BeO debris, varying chelator concentrations
Protocol: The aims of this investigation were not limited to the study of beryllium in biological fluids and systems. A good chelator in the body is likely a good chelator in the environment. […] Particles were obtained from the Contained Firing Facility (CFF) at LLNL Site 300. Approximately 500 mg of beryllium oxide debris was weighed in a tared polyethylene vials and varying concentrations of APMDP chelator (pH adjusted to pH 7) were added to each vial. The vials were left to stand for 3 days, with manual shaking performed for 2 minutes each, twice a day. Samples were then filtered through a 0.2 um membrane and filtrates were analyzed by ICP-MS.

## NC(c1ccccc1)(P(=O)(O)O)P(=O)(O)O [APMDP, α-aminobenzyl-α,α,-diphosphoric acid]
  ratio at which the chelator dissolves and binds beryllium: 1:1

— patent US20070254827A1, “Alpha-aminobenzyl-alpha,alpha,-diphosphoric acid selective chelation of beryllium” (priority 2006, published 2007)
